Among the data in article PMC12591124 are binding values, retold here.

Amino acid sequences for entries named in this document (tags omitted). A change or cut given only in a name is not applied to a line headed by its entry.
UniProt P08670: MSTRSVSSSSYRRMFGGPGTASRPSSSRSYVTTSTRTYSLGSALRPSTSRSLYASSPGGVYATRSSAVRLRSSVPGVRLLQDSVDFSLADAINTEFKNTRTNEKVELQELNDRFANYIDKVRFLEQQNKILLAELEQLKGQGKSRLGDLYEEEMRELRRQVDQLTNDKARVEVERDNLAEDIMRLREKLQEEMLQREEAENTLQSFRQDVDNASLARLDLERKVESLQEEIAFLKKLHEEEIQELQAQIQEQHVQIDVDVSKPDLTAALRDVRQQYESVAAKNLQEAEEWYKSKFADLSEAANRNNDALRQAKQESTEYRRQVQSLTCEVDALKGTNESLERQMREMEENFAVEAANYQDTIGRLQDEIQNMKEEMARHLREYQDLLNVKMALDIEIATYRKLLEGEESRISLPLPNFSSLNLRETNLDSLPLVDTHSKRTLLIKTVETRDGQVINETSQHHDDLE
UniProt Q99873: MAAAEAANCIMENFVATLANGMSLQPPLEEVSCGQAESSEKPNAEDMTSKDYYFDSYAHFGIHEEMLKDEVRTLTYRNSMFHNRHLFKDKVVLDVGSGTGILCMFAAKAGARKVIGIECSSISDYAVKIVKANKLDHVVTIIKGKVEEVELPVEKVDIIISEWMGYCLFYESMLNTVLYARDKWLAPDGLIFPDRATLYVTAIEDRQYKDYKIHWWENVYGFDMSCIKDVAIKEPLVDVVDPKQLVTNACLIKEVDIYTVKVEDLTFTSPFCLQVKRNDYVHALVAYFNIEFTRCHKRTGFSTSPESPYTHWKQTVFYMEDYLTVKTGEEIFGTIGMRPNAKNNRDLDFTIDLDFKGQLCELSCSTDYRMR

Results are given in words; binding and its absence hold for the method and conditions named. Binding seen in cells or lysates may run through a third protein. Some binding calls cover weakened binding; strength is not graded here.

For assay [1], the target named is Flag-vimentin (HeLa) (human) (UniProt P08670). Description: co-IP; HeLa cells expressing Flag-vimentin transfected with HA-PRMT1 variants; anti-Flag beads; bound HA-PRMT1 detected.
In assay [2] the target is vimentin (co-IP with KDM4A, HEK293T) (human) (UniProt P08670). Description: co-IP; HEK293T cells, with and without KDM4A depletion (Figure S5F); constructs not told in the text shown.

As for “HA-PRMT1 K134R (v2, HeLa) (from UniProt Q99873 1-371) (enzyme)”, the binding entry in assay [1] is listed as “binds”.

For “HA-PRMT1 WT (v2, HeLa) (from UniProt Q99873 1-371) (enzyme)”, the binding entry in assay [1] is “binds”.

Regarding “HA-PRMT1 K145R (v2, HeLa) (from UniProt Q99873 1-371) (enzyme)”, the binding entry in assay [1] is recorded as “binds”.

B1: KDM4A (HEK293T) (enzyme, UniProt O75164 1-1064)
chain: MASESETLNPSARIMTFYPTMEEFRNFSRYIAYIESQGAHRAGLAKVVPPKEWKPRASYDDIDDLVIPAPIQQLVTGQSGLFTQYNIQKKAMTVREFRKIANSDKYCTPRYSEFEELERKYWKNLTFNPPIYGADVNGTLYEKHVDEWNIGRLRTILDLVEKESGITIEGVNTPYLYFGMWKTSFAWHTEDMDLYSINYLHFGEPKSWYSVPPEHGKRLERLAKGFFPGSAQSCEAFLRHKMTLISPLMLKKYGIPFDKVTQEAGEFMITFPYGYHAGFNHGFNCAESTNFATRRWIEYGKQAVLCSCRKDMVKISMDVFVRKFQPERYKLWKAGKDNTVIDHTLPTPEAAEFLKESELPPRAGNEEECPEEDMEGVEDGEEGDLKTSLAKHRIGTKRHRVCLEIPQEVSQSELFPKEDLSSEQYEMTECPAALAPVRPTHSSVRQVEDGLTFPDYSDSTEVKFEELKNVKLEEEDEEEEQAAAALDLSVNPASVGGRLVFSGSKKKSSSSLGSGSSRDSISSDSETSEPLSCRAQGQTGVLTVHSYAKGDGRVTVGEPCTRKKGSAARSFSERELAEVADEYMFSLEENKKSKGRRQPLSKLPRHHPLVLQECVSDDETSEQLTPEEEAEETEAWAKPLSQLWQNRPPNFEAEKEFNETMAQQAPHCAVCMIFQTYHQVEFGGFNQNCGNASDLAPQKQRTKPLIPEMCFTSTGCSTDINLSTPYLEEDGTSILVSCKKCSVRVHASCYGVPPAKASEDWMCSRCSANALEEDCCLCSLRGGALQRANDDRWVHVSCAVAILEARFVNIAERSPVDVSKIPLPRFKLKCIFCKKRRKRTAGCCVQCSHGRCPTAFHVSCAQAAGVMMQPDDWPFVVFITCFRHKIPNLERAKGALQSITAGQKVISKHKNGRFYQCEVVRLTTETFYEVNFDDGSFSDNLYPEDIVSQDCLQFGPPAEGEVVQVRWTDGQVYGAKFVASHPIQMYQVEFEDGSQLVVKRDDVYTLDEELPKRVKSRLSVASDMRFNEIFTEKEVKQEKKRQRVINSRYREDYIEPALYRAIME
On to B1, for which the binding result in assay [2] is “binds”.
